This note sets out measurements from paper PMC8683481.

Protein sequences, listed by entry. Tags and fused reporters are not part of them.
UniProt P29350: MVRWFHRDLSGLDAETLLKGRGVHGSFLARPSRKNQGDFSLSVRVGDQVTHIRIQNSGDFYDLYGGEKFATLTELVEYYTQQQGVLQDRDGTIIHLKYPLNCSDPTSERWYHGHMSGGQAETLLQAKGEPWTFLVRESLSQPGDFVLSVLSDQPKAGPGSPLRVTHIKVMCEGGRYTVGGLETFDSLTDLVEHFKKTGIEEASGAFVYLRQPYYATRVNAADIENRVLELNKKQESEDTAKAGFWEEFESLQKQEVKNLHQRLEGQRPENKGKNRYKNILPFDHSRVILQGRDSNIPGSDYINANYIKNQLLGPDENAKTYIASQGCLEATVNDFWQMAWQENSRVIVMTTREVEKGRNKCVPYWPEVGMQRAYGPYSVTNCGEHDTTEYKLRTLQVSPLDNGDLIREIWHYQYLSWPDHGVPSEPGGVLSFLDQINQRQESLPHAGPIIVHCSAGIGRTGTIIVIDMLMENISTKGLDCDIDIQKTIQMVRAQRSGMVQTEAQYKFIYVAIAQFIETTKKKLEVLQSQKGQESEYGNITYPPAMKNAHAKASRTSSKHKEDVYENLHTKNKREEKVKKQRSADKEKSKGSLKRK

The assay addresses T1, SFB-tagged LIFR protein (leukemia inhibitory factor receptor) (human) (UniProt P42702).
T1 sequence: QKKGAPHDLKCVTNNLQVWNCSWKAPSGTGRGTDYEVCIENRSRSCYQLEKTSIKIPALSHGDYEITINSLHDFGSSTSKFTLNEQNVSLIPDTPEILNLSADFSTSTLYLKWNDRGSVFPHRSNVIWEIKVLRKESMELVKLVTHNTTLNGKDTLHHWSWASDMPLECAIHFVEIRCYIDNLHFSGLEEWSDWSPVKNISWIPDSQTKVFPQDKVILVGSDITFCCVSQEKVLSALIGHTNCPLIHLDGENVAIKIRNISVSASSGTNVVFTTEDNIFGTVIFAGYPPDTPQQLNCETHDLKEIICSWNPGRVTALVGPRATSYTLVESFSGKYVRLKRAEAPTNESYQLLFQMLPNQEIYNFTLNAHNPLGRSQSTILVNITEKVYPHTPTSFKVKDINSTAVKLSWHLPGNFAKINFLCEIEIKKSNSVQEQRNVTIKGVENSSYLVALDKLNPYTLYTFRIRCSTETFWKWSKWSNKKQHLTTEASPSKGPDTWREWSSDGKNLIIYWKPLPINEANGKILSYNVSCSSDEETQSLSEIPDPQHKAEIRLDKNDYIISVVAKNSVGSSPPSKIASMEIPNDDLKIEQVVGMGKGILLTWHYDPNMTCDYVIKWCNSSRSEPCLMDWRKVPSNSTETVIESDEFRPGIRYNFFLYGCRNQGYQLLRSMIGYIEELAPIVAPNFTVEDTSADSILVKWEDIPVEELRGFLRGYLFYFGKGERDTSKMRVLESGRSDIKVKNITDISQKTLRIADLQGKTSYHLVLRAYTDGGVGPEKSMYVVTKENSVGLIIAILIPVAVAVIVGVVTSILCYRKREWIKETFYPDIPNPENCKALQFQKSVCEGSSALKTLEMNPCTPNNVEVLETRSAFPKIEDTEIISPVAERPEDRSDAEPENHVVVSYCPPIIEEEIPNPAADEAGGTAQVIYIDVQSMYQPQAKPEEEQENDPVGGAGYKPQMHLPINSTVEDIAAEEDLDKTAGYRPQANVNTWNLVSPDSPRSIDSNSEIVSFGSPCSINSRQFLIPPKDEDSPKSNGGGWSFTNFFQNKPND
Put plainly: pull-down; HEK293T cells co-transfected with SHP1 or SHP2 and SFB-tagged GFP or LIFR; lysed after 48 h in CHAPS buffer (120 mM NaCl, 20 mM NaF, 1 mM EDTA, 25 mM Tris-HCl pH 7.5, 0.33% CHAPS); SFB-tagged bait held on S-protein beads, 4 °C, 2 h; 5 washes; Western blot. Background: A western blot detects proteins with antibodies after separation by electrophoresis.

These are yes or no findings as the source states them, for the method shown. Binding seen in cells or lysates may run through a third protein. Some binding calls cover weakened binding; strength is not graded here. Where a sequence is shown, tags or fusion partners need not be part of it.

Regarding “HA-FLAG-SHP1 (from UniProt P29350 1-595) (enzyme)”, the binding result is reported as “binds”.
